The source of these data is paper PMC6697681, “The predominance of nucleotidyl activation in bacterial phosphonate biosynthesis” (Nature Communications, 2019).

The target in this assay is LicC from Streptococcus pneumoniae (Spn-LicC), phosphocholine cytidylyltransferase (Streptococcus pneumoniae) (UniProt Q8DPI6). The assay can be described thus: dynamic light scattering; 20 µl of freshly purified protein (8 mg/ml) at 20 °C, DynaPro NanoStar; self-association (oligomeric state); both purified.

Results are given in words; binding and its absence hold for the method and conditions named.

B1: LicC from Streptococcus pneumoniae (Spn-LicC), phosphocholine cytidylyltransferase (enzyme, UniProt Q8DPI6 2-229)
chain: KAIILAAGLGTRLRPMTENTPKALVQVNQKPLIEYQIEFLKEKGINDIIIIVGYLKEQFDYLKEKYGVRLVFNDKYADYNNFYSLYLVKEELANSYVIDADNYLFKNMFRNDLTRSTYFSVYREDCTNEWFLVYGDDYKVQDIIVDSKAGRILSGVSFWDAPTAEKIVSFIDKAYASGEFVDLYWDNMVKDNIKELDVYVEELEGNSIYEIDSVQDYRKLEEILKNEN
As to B1, the binding result is recorded as “no binding (tested: 8 mg/ml)”.
